{"source": "PubChem BioAssay AID1345085", "about": "(National Center for Advancing Translational Sciences (NCATS), 2018)", "note": "The shares of active, inactive and inconclusive entries below differ from those in the screen. A potency beside an inconclusive call is a rough fit, not a confirmed value. Activity calls are given as the source filed them. Calls follow the shape of the dose curve; as a rule, active = well fitted cell-killing curve with a large enough effect; inconclusive = small, poorly fitted or top-dose-only effect, or effect the other way; inactive = no such curve, though single readings can be large or run the other way. Potency is read from the fitted curve at half-maximal effect.", "data": [{"system": "Jar", "assay": "Confirmatory qHTS for gynecologic anti-cancer compounds from libraries of approved drugs and bioactive compounds; also: nearly all actives have a fitted effect of over 55% in size", "settings": "gynecologic cancer cell panel viability, ATPlite luminescence, 48 h; series mostly up to 57.6 µM", "outline": "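ATP-based luminescent viability (ATPlite) after 48 h drug treatment at 37 °C, 5% CO2, across 57.5 uM–0.977 nM in 1:3 steps. Cells seeded at 1,000 per well 16 h beforehand; IC50 values computed, HEK 293T as selectivity control.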", "values": [{"compound": "CNc1nc(Nc2ccc(C(=O)N3CCOCC3)cc2OC)ncc1Cl", "Potency": "inconclusive: 30.6 µM [cytotoxic, single point]"}, {"compound": "O=C(O)c1ccc(Nc2ncc3c(n2)-c2ccc(Cl)cc2C(c2c(F)cccc2F)=NC3)cc1", "Potency": "inconclusive: 0.0153 µM [rising, full curve, poor fit]"}, {"compound": "Cc1nc2ccc(CN(C)c3ccc(C(=O)NC(CCC(=O)O)C(=O)O)s3)cc2c(=O)[nH]1", "note": "(configuration not stated)", "Potency": "inactive"}, {"compound": "COc1cccc2c1C(=O)c1c(O)c3c(c(O)c1C2=O)C[C@@](O)(C(=O)CO)C[C@@H]3O[C@H]1C[C@H](N)[C@H](O)[C@H](C)O1", "Potency": "active: 1.72 µM"}, {"compound": "Cc1nc(Nc2n[nH]c3c2CN(C(=O)NC(CN(C)C)c2ccccc2)C3(C)C)c2sccc2n1", "note": "(configuration not stated)", "Potency": "inactive"}, {"compound": "COc1cc2c(c(OC)c1OC)-c1ccc(OC)c(=O)cc1[C@@H](NC(C)=O)CC2", "Potency": "inconclusive: 0.224 µM [cytotoxic, full curve]"}, {"compound": "COc1cc(N2CCC(N3CCN(C)CC3)CC2)ccc1Nc1ncnc(Nc2ccccc2S(=O)(=O)C(C)C)n1", "Potency": "inactive"}, {"compound": "COc1cccc2cc(-c3nc(C4CCC(C(=O)O)CC4)n4ncnc(N)c34)[nH]c12", "note": "(configuration not stated)", "Potency": "inconclusive: 24.3 µM [cytotoxic, partial curve, poor fit]"}, {"compound": "Cc1nc(N)sc1-c1ccnc(Nc2ccc(N3CCOCC3)cc2)n1", "Potency": "active: 3.85 µM"}, {"compound": "CC(=O)c1cnc2ccc(-c3cc(Cl)c(O)c(Cl)c3)nc2c1NC1CCC(CN(C)C)CC1", "note": "(configuration not stated)", "Potency": "inconclusive: 0.0018 µM [rising, full curve, poor fit]"}, {"compound": "COc1ccc(OC)c(-c2nnc3ccc(-c4ccc(OC)c(O[C@@H]5CCOC5)c4)nn23)c1", "Potency": "active: 12.2 µM"}, {"compound": "O=C1N(c2ccccc2)c2ccccc2C1(Cc1ccncc1)Cc1ccncc1", "Potency": "inconclusive: 0.193 µM [rising, partial curve, poor fit]"}, {"compound": "Cc1c(C)n(Cc2ccc(-c3ccccc3C(=O)O)cc2)c2ccc(C(=O)N[C@@H](C)c3ccc([N+](=O)[O-])cc3)cc12", "Potency": "inconclusive: 15.3 µM [rising, partial curve, poor fit]"}, {"compound": "CC1(C)[C@@H](O)CC[C@]2(C)[C@H]3C(=O)C=C4[C@@H]5C[C@@](C)(C(=O)O)CC[C@]5(C)CC[C@@]4(C)[C@]3(C)CC[C@@H]12", "Potency": "inconclusive: 0.0385 µM [rising, full curve, poor fit]"}, {"compound": "CN(C)/N=N/c1nc[nH]c1C(N)=O", "Potency": "inconclusive: 38.5 µM [cytotoxic, single point]"}, {"compound": "COc1ccc(-c2ccc3c(N4CCOCC4C)nc(N4CCOCC4C)nc3n2)cc1CO", "note": "(configuration not stated)", "Potency": "inactive"}, {"compound": "COc1ccc2c(c1OC)C(=O)O[C@@H]2[C@H]1c2c(cc3c(c2OC)OCO3)CCN1C", "Potency": "active: 30.6 µM"}, {"compound": "Nc1nccc(Oc2ccc(NC(=O)c3c[nH]cc(-c4ccc(F)cc4)c3=O)cc2F)c1Cl", "Potency": "inconclusive: 38.5 µM [cytotoxic, partial curve, poor fit]"}, {"compound": "CCN(CC)CCCC(C)Nc1c2ccc(Cl)cc2nc2ccc(OC)cc12", "note": "(configuration not stated)", "Potency": "inactive"}, {"compound": "CNCc1ccc(-c2[nH]c3cc(F)cc4c3c2CCNC4=O)cc1", "Potency": "inactive"}, {"compound": "C=CC(=O)Nc1cc2c(Nc3ccc(F)c(Cl)c3)ncnc2cc1OCCCN1CCOCC1", "Potency": "inconclusive: 43.2 µM [cytotoxic, partial curve, poor fit]"}, {"compound": "Cc1cnc(Nc2ccc(CN3CCOCC3)cc2)nc1Nc1cccc(S(=O)(=O)NC(C)(C)C)c1", "Potency": "active: 9.68 µM"}, {"compound": "NS(=O)(=O)OC[C@@H]1C[C@@H](n2ccc3c(N[C@H]4CCc5ccccc54)ncnc32)C[C@@H]1O", "Potency": "inactive"}, {"compound": "Cn1cnc2c(F)c(Nc3ccc(Br)cc3F)c(C(=O)NOCCO)cc21", "Potency": "inactive"}, {"compound": "CCS(=O)(=O)c1cccc(-c2cc(C(=O)NC3CCN(C)CC3)c(C)c3[nH]c4ncc(C)cc4c23)c1", "Potency": "inconclusive: 1.19 µM [cytotoxic, full curve]"}, {"compound": "Nc1nc(Cl)nc2c1ncn2C1OC(CO)C(O)C1F", "note": "(configuration not stated)", "Potency": "inconclusive: 1.53 µM [cytotoxic, full curve]"}, {"compound": "COc1cc2ncnc(Nc3ccc(F)c(Cl)c3)c2cc1OCCCN1CCOCC1", "Potency": "inconclusive: 17.2 µM [cytotoxic, partial curve, poor fit]"}, {"compound": "CC(=O)Nc1cccc(-n2c(=O)n(C3CC3)c(=O)c3c(Nc4ccc(I)cc4F)n(C)c(=O)c(C)c32)c1", "Potency": "inactive"}, {"compound": "Cc1cc(C2CCCCC2)n(O)c(=O)c1", "Potency": "active: 8.86 µM"}, {"compound": "O=c1[nH]c(=O)n([C@H]2C[C@H](O)[C@@H](CO)O2)cc1C(F)(F)F", "Potency": "inactive"}, {"compound": "Cn1c(=O)c(F)c(Nc2ccc(I)cc2F)c2c(=O)n(CC(O)CO)cnc21", "note": "(configuration not stated)", "Potency": "inactive"}, {"compound": "Cc1ccc(C(=O)N(CCCN)C(c2oc3cc(Cl)ccc3c(=O)c2Cc2ccccc2)C(C)C)cc1", "note": "(configuration not stated)", "Potency": "active: 0.0137 µM"}]}]}
